Results deposited as PubChem BioAssay AID743121 (NCATS, 2013).
Purpose: 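Knock-downs that sensitise breast cancer cells to camptothecin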 (primary screen). System: MDA-MB-231 cells, a human breast cancer line. Reagents: single siRNA against human genes, 20 nM siRNA (0.8 pmol per well). Time to read-out: 120 h (drug added 48 h after transfection, read 72 h later). Conditions: camptothecin 20 nM (about EC30) for 72 h; vehicle 0.1% DMSO in parallel plates. Measured: 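Cell viability by ATP luminescence (CellTiter-Glo) as % of non-targeting siRNA wells, and the log2 ratio of viability without drug over viability with camptothecin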. Scale: log2 vehicle/camptothecin viability: higher = stronger sensitisation to camptothecin; viability with camptothecin and viability without drug: higher = more viable cells. Hit rule: 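Active genes have an RSA gene-level p-value below 0.001, computed from the ratios of their separate siRNAs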.
The deposit covers about 26,000 reagents; shown is a part drawn at random. Of all reagents, 167 (0.63%) got an active call. 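Calls are per gene from RSA p-values that are not deposited; an individual active-marked siRNA can sensitise only weakly.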 Reagents against one gene are numbered here. No sequences are given here.

target gene	siRNA no.	log2 vehicle/camptothecin viability	viability with camptothecin (% of control)	viability without drug (% of control)	Call
CBL (Cbl proto-oncogene)	1	-0.0761	84.3	80	inactive
CBL (Cbl proto-oncogene)	2	-0.417	64.8	48.5	inactive
CBL (Cbl proto-oncogene)	3	-0.167	129	115	inactive
CBL (Cbl proto-oncogene)	4	-0.209	100	86.9	inactive
KMT5A (lysine methyltransferase 5A)	1	0.171	22	24.8	inactive
KMT5A (lysine methyltransferase 5A)	2	0.0271	67.9	69.2	inactive
KMT5A (lysine methyltransferase 5A)	3	-0.686	78.4	48.7	inactive
MAPK14 (mitogen-activated protein kinase 14)	1	-0.182	108	95.2	inactive
MAPK14 (mitogen-activated protein kinase 14)	2	-0.282	133	109	inactive
MAPK14 (mitogen-activated protein kinase 14)	3	-0.239	95.4	80.8	inactive
MAPK14 (mitogen-activated protein kinase 14)	4	-0.221	112	95.8	inactive

No new results follow: entries from further up.
target gene	siRNA no.	log2 vehicle/camptothecin viability	viability with camptothecin (% of control)	viability without drug (% of control)	Call
CBL (Cbl proto-oncogene)	1	-0.0761	84.3	80	inactive
CBL (Cbl proto-oncogene)	2	-0.417	64.8	48.5	inactive

Continued:
target gene	siRNA no.	log2 vehicle/camptothecin viability	viability with camptothecin (% of control)	viability without drug (% of control)	Call
TNC (tenascin C)	1	-0.309	68.1	55	inactive
TNC (tenascin C)	2	0.123	87.4	95.2	inactive
TNC (tenascin C)	3	-0.236	101	85.6	inactive
TNC (tenascin C)	4	-0.503	69.4	49	inactive
HNRNPM (heterogeneous nuclear ribonucleoprotein M)	1	-0.472	112	81.1	inactive
HNRNPM (heterogeneous nuclear ribonucleoprotein M)	2	-0.641	92.9	59.5	inactive
HNRNPM (heterogeneous nuclear ribonucleoprotein M)	3	-0.0732	50.1	47.6	inactive
HNRNPM (heterogeneous nuclear ribonucleoprotein M)	4	-0.757	112	66.2	inactive
FANCC (FA complementation group C)	1	-0.0126	28.8	28.6	inactive
FANCC (FA complementation group C)	2	-0.215	54.7	47.1	inactive
FANCC (FA complementation group C)	3	-0.222	79.1	67.8	inactive
FANCC (FA complementation group C)	4	-0.263	96.2	80.2	inactive
DCUN1D1 (defective in cullin neddylation 1 domain containing 1)	1	0.293	84.9	104	inactive
DCUN1D1 (defective in cullin neddylation 1 domain containing 1)	2	0.102	102	109	inactive
DCUN1D1 (defective in cullin neddylation 1 domain containing 1)	3	0.021	102	104	inactive
DCUN1D1 (defective in cullin neddylation 1 domain containing 1)	4	-0.0161	85.9	84.9	inactive
SLC6A3	1	-0.214	55	47.5	inactive
SLC6A3	2	-0.248	43.3	36.5	inactive
SLC6A3	3	-0.207	53.7	46.5	inactive
SLC6A3	4	0.133	15.3	16.8	inactive
